{
  "source": "paper PMC7618050",
  "about": "“Structure of the Bacteriophage PhiKZ non-virion RNA Polymerase transcribing from its promoter p119L”",
  "test_system": "PhiKZ nvRNAP GP55 (beta'-like) + PhiKZ nvRNAP GP74 (beta'-like) + PhiKZ nvRNAP GP71-73 (beta-like) + PhiKZ nvRNAP GP123 (beta-like) + PhiKZ nvRNAP GP68 (sigma-like, promoter recognition)",
  "assay": "EMSA (native PAGE)",
  "settings": "40 mM Tris-Cl pH 8.0, 10 mM MgCl2, 5 mM DTT, 1 mM ATP/CTP/GTP, 30 min at 37 C, nvRNAP 0.1 mg/mL with scaffold 1:1; native PAGE 4-20% TGX at 4 C; recombinant protein; label: Cy5 at 5' end of RNA (printed Cy5-GUAGA)",
  "note": "Construct, isoform or probe ends are uncertain for at least one entry. At least one verdict rests on a figure or table, not on a statement of the authors.",
  "data": [
    {"sequence": "AGTAATTTTAGTGAATGTATTTGCTATATTGCTATCCTAACAGTTCCCAAAAGCCTAAAGTTACAATATAGGTAC / GTACCTATATTGTAACTTTAGGCTTTTGGGAACTGTCTACATAGCAATATAGCAAATACATTCACTAAAATTACT / GUAGA [p119L-4nt RNA/DNA template]", "values": [
      {"measurement": "binding result", "value": "binds"}
    ]}
  ]
}
